Holding throughout (assay type): cell-based
Data set [1] deals with U-87 (human glioblastoma). The data set can be described thus: MTT cytotoxicity assay, U-87. To be noted: IC50 for normal cell line (HDF)/IC50 for U-87. As to the method:
(§1) This activity was evaluated in vitro using the standard MTT method (enzymatic reduction of 3-[4,5-dimethylthiazole-2-yl]-2,5-diphenyltetrazolium bromide, MTT, to MTT-formazan) based on a viability assay.
(§2) Cytotoxic activity: Human cancer cells SKBR-3 (human breast cancer cell line) and SKOV-3 (ovarian cancer cell line) were cultured in McCoy’s Modified Medium. Human cancer cells PC-3 (human prostate cancer cell line) were cultured in an F-12K medium. The Human Dermal Fibroblast (HDF) cell line was cultured in Fibroblast Basal Medium. The U-87 cell line was cultured in EMEM medium. Each medium was supplemented with 10% foetal bovine serum, 1% L- glutamine, and 1% penicillin/streptomycin solution. The cell lines were kept in an incubator at 37 °C. All the cell lines and mediums were obtained from the American Type Culture Collection (ATCC) supplied by LGC-Standards (Lomianki, Poland).
(§3) The MTT assay was conducted as described earlier.
In general terms: Tetrazolium assays rely on reduction of a dye to a coloured formazan, in cell work by metabolically active cells.

Data set [2] has as its system PC-3 (human prostate carcinoma). Nature of the data set: MTT cytotoxicity assay, PC-3. To be noted: IC50 for normal cell line (HDF)/IC50 for PC-3. As to the method: as §1, §2, §3
For data set [3], the system named is SKOV-3 (human ovarian cystadenocarcinoma). Nature of the data set: MTT cytotoxicity assay, SKOV-3. The conditions noted are these: IC50 for normal cell line (HDF)/IC50 for SKOV-3. As for the experimental part: as §1, §2, §3
Data set [4] concerns SKBR-3 (human breast adenocarcinoma). The data set can be described thus: MTT cytotoxicity assay, SKBR-3. The conditions noted are these: IC50 for normal cell line (HDF)/IC50 for SKBR-3. As for the experimental part:
as §1, §2, §3

As to `CC1(C)CC[C@]2(C(=O)OCOC(=O)[C@]34CCC(C)(C)CC3C3=CCC5[C@@]6(C)CC[C@H](O)C(C)(C)C6CC[C@@]5(C)[C@]3(C)CC4)CC[C@]3(C)C(=CCC4[C@@]5(C)CC[C@H](O)C(C)(C)C5CC[C@]43C)C2C1` (some centres unmarked) [Compound 2a], in data set [1], the “SI, U-87” value came out at 1.97. The “SI, PC-3” value in data set [2] came out at 1.94. Also, the “SI, SKOV-3” value in data set [3] stood at 1.69. In addition, the “SI, SKBR-3” value in data set [4] is listed as 1.66.

As to `CC1(C)CC[C@]2(C(=O)OCCOC(=O)[C@]34CCC(C)(C)CC3C3=CCC5[C@@]6(C)CC[C@H](O)C(C)(C)C6CC[C@@]5(C)[C@]3(C)CC4)CC[C@]3(C)C(=CCC4[C@@]5(C)CC[C@H](O)C(C)(C)C5CC[C@]43C)C2C1` (some centres unmarked) [Compound 2b], the “SI, U-87” value in data set [1] is reported as 1.70. In data set [2], the “SI, PC-3” value was found to be 1.74. Further, the “SI, SKOV-3” value in data set [3] is reported as 1.72. For the same compound, the “SI, SKBR-3” value in data set [4] amounted to 1.68.

`CC1(C)CC[C@]2(C(=O)OCCCOC(=O)[C@]34CCC(C)(C)CC3C3=CCC5[C@@]6(C)CC[C@H](O)C(C)(C)C6CC[C@@]5(C)[C@]3(C)CC4)CC[C@]3(C)C(=CCC4[C@@]5(C)CC[C@H](O)C(C)(C)C5CC[C@]43C)C2C1` (some centres unmarked) [Compound 2c]: in data set [1], the “SI, U-87” value was 2.54. For the same compound, the “SI, PC-3” value in data set [2] was 2.56. Also, the “SI, SKOV-3” value in data set [3] is given as 2.30. Also, the “SI, SKBR-3” value in data set [4] came to 2.48.

Consider `CC1(C)CC[C@]2(C(=O)OCCCCOC(=O)[C@]34CCC(C)(C)CC3C3=CCC5[C@@]6(C)CC[C@H](O)C(C)(C)C6CC[C@@]5(C)[C@]3(C)CC4)CC[C@]3(C)C(=CCC4[C@@]5(C)CC[C@H](O)C(C)(C)C5CC[C@]43C)C2C1` (some centres unmarked) [Compound 2d], for which, in data set [1], the “SI, U-87” value turned out to be 2.46. Also, in data set [2], the “SI, PC-3” value was 1.80. The “SI, SKOV-3” value in data set [3] amounted to 1.89. Further, the “SI, SKBR-3” value in data set [4] was determined as 2.63.

Turning to `CC1(C)CC[C@]2(C(=O)OC/C=C\COC(=O)[C@]34CCC(C)(C)CC3C3=CCC5[C@@]6(C)CC[C@H](O)C(C)(C)C6CC[C@@]5(C)[C@]3(C)CC4)CC[C@]3(C)C(=CCC4[C@@]5(C)CC[C@H](O)C(C)(C)C5CC[C@]43C)C2C1` (some centres unmarked) [Compound 2e], the “SI, U-87” value in data set [1] is given as 0.98. For the same compound, the “SI, PC-3” value in data set [2] stood at 1.18. Further, the “SI, SKOV-3” value in data set [3] is given as 1.28. The “SI, SKBR-3” value in data set [4] was 1.03.

Turning to `CC1(C)CC[C@]2(C(=O)OC/C=C/COC(=O)[C@]34CCC(C)(C)CC3C3=CCC5[C@@]6(C)CC[C@H](O)C(C)(C)C6CC[C@@]5(C)[C@]3(C)CC4)CC[C@]3(C)C(=CCC4[C@@]5(C)CC[C@H](O)C(C)(C)C5CC[C@]43C)C2C1` (some centres unmarked) [Compound 2f], in data set [1], the “SI, U-87” value turned out to be 0.57. For the same compound, the “SI, PC-3” value in data set [2] was determined as 0.54. In addition, in data set [3], the “SI, SKOV-3” value is 0.58. Moreover, the “SI, SKBR-3” value in data set [4] stood at 0.54.

Consider `CC1(C)CC[C@]2(C(=O)OCCCCCOC(=O)[C@]34CCC(C)(C)CC3C3=CCC5[C@@]6(C)CC[C@H](O)C(C)(C)C6CC[C@@]5(C)[C@]3(C)CC4)CC[C@]3(C)C(=CCC4[C@@]5(C)CC[C@H](O)C(C)(C)C5CC[C@]43C)C2C1` (some centres unmarked) [Compound 2g], for which the “SI, U-87” value in data set [1] worked out at 0.63. The “SI, PC-3” value in data set [2] turned out to be 0.58. The “SI, SKOV-3” value in data set [3] amounted to 0.65. Besides, in data set [4], the “SI, SKBR-3” value amounted to 0.65.

In the case of `CC1(C)CC[C@]2(C(=O)OCCCCCCOC(=O)[C@]34CCC(C)(C)CC3C3=CCC5[C@@]6(C)CC[C@H](O)C(C)(C)C6CC[C@@]5(C)[C@]3(C)CC4)CC[C@]3(C)C(=CCC4[C@@]5(C)CC[C@H](O)C(C)(C)C5CC[C@]43C)C2C1` (some centres unmarked) [Compound 2h], the “SI, U-87” value in data set [1] is recorded as 2.95. The “SI, PC-3” value in data set [2] is reported as 3.24. For the same compound, the “SI, SKOV-3” value in data set [3] stood at 3.21. The “SI, SKBR-3” value in data set [4] is 2.87.

In the case of `CC1(C)CC[C@]2(C(=O)OCCCCCCCOC(=O)[C@]34CCC(C)(C)CC3C3=CCC5[C@@]6(C)CC[C@H](O)C(C)(C)C6CC[C@@]5(C)[C@]3(C)CC4)CC[C@]3(C)C(=CCC4[C@@]5(C)CC[C@H](O)C(C)(C)C5CC[C@]43C)C2C1` (some centres unmarked) [Compound 2i], in data set [1], the “SI, U-87” value came to 1.76. For the same compound, in data set [2], the “SI, PC-3” value is 1.70. Further, the “SI, SKOV-3” value in data set [3] was found to be 1.46. Also, in data set [4], the “SI, SKBR-3” value is listed as 1.57.

Take `CC1(C)CC[C@]2(C(=O)OCCCCCCCCOC(=O)[C@]34CCC(C)(C)CC3C3=CCC5[C@@]6(C)CC[C@H](O)C(C)(C)C6CC[C@@]5(C)[C@]3(C)CC4)CC[C@]3(C)C(=CCC4[C@@]5(C)CC[C@H](O)C(C)(C)C5CC[C@]43C)C2C1` (some centres unmarked) [Compound 2j]: the “SI, U-87” value in data set [1] worked out at 1.49. Moreover, the “SI, PC-3” value in data set [2] was 1.63. In addition, in data set [3], the “SI, SKOV-3” value came to 1.55. The “SI, SKBR-3” value in data set [4] stood at 1.60.

For `CC1(C)CC[C@]2(C(=O)OCCCCCCCCCOC(=O)[C@]34CCC(C)(C)CC3C3=CCC5[C@@]6(C)CC[C@H](O)C(C)(C)C6CC[C@@]5(C)[C@]3(C)CC4)CC[C@]3(C)C(=CCC4[C@@]5(C)CC[C@H](O)C(C)(C)C5CC[C@]43C)C2C1` (some centres unmarked) [Compound 2k], the “SI, U-87” value in data set [1] is 2.29. Also, in data set [2], the “SI, PC-3” value was determined as 2.43. In addition, the “SI, SKOV-3” value in data set [3] is given as 2.44. Also, the “SI, SKBR-3” value in data set [4] is given as 2.43.

`CC1(C)CC[C@]2(C(=O)OCCCCCCCCCCOC(=O)[C@]34CCC(C)(C)CC3C3=CCC5[C@@]6(C)CC[C@H](O)C(C)(C)C6CC[C@@]5(C)[C@]3(C)CC4)CC[C@]3(C)C(=CCC4[C@@]5(C)CC[C@H](O)C(C)(C)C5CC[C@]43C)C2C1` (some centres unmarked) [Compound 2l]: the “SI, U-87” value in data set [1] is on record as 1.94. The “SI, PC-3” value in data set [2] is 1.97. Also, the “SI, SKOV-3” value in data set [3] is reported as 1.97. Further, in data set [4], the “SI, SKBR-3” value came out at 1.94.

Turning to `CC1(C)CC[C@]2(C(=O)OCCCCCCCCCCCOC(=O)[C@]34CCC(C)(C)CC3C3=CCC5[C@@]6(C)CC[C@H](O)C(C)(C)C6CC[C@@]5(C)[C@]3(C)CC4)CC[C@]3(C)C(=CCC4[C@@]5(C)CC[C@H](O)C(C)(C)C5CC[C@]43C)C2C1` (some centres unmarked) [Compound 2m], in data set [1], the “SI, U-87” value was 1.75. For the same compound, the “SI, PC-3” value in data set [2] is 1.90. For the same compound, the “SI, SKOV-3” value in data set [3] is given as 1.62. Also, the “SI, SKBR-3” value in data set [4] came out at 1.89.

On to `CC1(C)CC[C@]2(C(=O)OCCCCCCCCCCCCOC(=O)[C@]34CCC(C)(C)CC3C3=CCC5[C@@]6(C)CC[C@H](O)C(C)(C)C6CC[C@@]5(C)[C@]3(C)CC4)CC[C@]3(C)C(=CCC4[C@@]5(C)CC[C@H](O)C(C)(C)C5CC[C@]43C)C2C1` (some centres unmarked) [Compound 2n], for which the “SI, U-87” value in data set [1] is recorded as 1.12. Besides, the “SI, PC-3” value in data set [2] is 1.05. Also, the “SI, SKOV-3” value in data set [3] is recorded as 0.98. In addition, the “SI, SKBR-3” value in data set [4] is reported as 1.07.

(Values after PMC11241395 (International Journal of Molecular Sciences, 2024).)
